Source: US20050101769A1
Results are given in words; binding and its absence hold for the method and conditions named. For part of these data: Binding seen in cells or lysates may run through a third protein. Some binding calls cover weakened binding; strength is not graded here. For part of these data: Tags and fused reporters may be left off the sequences shown. One block for each binder: values may come before it.

Sequences of proteins named here, by UniProt entry; tags and fusion partners are left off. Residues count along the entry.
UniProt Q13546: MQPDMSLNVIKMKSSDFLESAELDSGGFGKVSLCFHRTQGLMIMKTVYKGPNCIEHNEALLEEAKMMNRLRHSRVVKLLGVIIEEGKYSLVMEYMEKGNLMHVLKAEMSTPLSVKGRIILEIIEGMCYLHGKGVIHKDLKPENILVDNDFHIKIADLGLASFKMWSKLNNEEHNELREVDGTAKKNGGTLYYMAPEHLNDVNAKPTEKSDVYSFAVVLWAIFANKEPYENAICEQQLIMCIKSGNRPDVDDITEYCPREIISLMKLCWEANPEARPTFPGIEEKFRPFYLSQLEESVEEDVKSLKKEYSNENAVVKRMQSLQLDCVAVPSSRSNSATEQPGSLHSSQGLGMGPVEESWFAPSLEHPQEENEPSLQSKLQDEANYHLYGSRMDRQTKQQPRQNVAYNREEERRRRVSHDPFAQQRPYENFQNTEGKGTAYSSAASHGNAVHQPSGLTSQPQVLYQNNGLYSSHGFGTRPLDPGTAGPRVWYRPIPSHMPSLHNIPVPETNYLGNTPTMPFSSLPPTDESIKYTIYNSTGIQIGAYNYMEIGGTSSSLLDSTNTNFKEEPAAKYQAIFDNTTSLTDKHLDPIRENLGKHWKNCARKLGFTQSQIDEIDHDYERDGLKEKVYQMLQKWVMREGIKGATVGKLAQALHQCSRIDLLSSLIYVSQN
UniProt P25942, residues 21-277: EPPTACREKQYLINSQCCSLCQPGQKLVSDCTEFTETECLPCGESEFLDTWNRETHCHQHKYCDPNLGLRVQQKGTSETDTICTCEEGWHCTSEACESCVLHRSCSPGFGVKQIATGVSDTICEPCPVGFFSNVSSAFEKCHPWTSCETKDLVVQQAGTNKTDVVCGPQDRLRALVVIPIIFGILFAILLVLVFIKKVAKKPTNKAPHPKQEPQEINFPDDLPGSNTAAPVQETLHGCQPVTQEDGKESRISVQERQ
UniProt O00463: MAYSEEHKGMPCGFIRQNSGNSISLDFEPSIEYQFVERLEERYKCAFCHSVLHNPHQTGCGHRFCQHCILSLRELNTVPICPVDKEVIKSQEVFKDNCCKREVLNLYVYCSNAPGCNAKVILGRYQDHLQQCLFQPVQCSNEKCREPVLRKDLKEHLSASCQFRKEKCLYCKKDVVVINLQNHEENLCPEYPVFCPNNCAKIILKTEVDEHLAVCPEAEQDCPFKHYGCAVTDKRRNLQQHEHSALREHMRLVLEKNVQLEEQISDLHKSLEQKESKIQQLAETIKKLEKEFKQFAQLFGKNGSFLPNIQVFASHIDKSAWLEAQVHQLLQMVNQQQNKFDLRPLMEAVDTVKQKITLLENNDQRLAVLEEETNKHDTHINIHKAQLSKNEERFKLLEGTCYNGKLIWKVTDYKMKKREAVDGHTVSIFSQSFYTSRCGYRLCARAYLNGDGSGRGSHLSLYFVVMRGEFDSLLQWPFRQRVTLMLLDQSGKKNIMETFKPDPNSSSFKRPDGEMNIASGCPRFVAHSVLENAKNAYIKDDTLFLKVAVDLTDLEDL
UniProt P20333, residues 23-461: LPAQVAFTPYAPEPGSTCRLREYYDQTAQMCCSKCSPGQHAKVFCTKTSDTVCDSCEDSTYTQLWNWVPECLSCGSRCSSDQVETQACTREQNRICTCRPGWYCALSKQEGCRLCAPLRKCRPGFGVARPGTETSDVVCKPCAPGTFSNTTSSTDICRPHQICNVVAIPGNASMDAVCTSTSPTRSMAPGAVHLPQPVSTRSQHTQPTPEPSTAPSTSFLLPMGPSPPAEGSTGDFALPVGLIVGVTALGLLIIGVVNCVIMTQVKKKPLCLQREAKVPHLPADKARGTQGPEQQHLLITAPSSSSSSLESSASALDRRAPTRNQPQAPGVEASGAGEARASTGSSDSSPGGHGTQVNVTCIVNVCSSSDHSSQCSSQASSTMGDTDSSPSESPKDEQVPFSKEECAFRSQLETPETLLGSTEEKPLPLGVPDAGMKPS

How the values were obtained:
TRAF2 [1] = target: T1, TRAF2 (UniProt Q12933); test: yeast two-hybrid, 4F2 as prey and TRAF2 as bait
T1 sequence (looked up): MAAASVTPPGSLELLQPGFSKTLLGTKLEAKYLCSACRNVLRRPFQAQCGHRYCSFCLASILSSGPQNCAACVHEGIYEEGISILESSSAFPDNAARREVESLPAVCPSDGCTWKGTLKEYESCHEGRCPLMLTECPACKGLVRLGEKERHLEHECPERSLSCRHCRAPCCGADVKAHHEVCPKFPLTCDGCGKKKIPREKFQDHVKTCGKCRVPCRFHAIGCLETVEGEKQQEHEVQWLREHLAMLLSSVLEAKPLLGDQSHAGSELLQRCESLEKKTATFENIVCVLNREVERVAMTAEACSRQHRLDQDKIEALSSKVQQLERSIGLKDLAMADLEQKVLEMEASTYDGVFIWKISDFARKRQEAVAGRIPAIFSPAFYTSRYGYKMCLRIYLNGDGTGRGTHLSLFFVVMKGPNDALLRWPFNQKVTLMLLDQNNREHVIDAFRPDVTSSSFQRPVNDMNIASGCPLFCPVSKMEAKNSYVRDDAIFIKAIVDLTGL

RIP [2] = target: RIP (UniProt Q13546); test: yeast two-hybrid, colour formation on X-gal (column = prey, row = bait)
TRAF2 [3] = target: T1, TRAF2; test: as above
RIP [4] = target: RIP (UniProt Q13546); test: yeast two-hybrid
TRAF2, Q12933 [5] = target: T2, TRAF2, Q12933; test: yeast two-hybrid, TTRAP as prey and TRAF2 as bait; details: remark: other sources report otherwise
T2 chain: T1 sequence (looked up)

TRAF2, Q12933 [6] = target: T2, TRAF2, Q12933; test: yeast two-hybrid; details: remark: other sources report otherwise
TRAF2, Q12933 [7] = target: T2, TRAF2, Q12933; test: yeast two-hybrid, colour formation on X-gal (column = prey, row = bait); details: remark: other sources report otherwise
[8] = target: CD40 over-expressed in 293T human embryonic kidney cells (UniProt P25942); test: co-immunoprecipitation after over-expression in 293T cells
TRADD = target: T3, TRADD (UniProt Q15628); test: yeast two-hybrid, colour formation on X-gal (column = prey, row = bait)
T3 sequence (looked up): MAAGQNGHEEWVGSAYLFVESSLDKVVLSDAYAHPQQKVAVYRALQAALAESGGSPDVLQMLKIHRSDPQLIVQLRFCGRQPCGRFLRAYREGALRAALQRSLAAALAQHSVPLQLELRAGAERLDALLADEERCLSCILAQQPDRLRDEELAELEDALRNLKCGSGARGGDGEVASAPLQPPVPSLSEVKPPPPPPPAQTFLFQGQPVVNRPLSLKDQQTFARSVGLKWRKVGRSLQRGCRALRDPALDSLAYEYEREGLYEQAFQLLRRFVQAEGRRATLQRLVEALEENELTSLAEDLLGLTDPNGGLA

[9] = target: Flag-tagged human TRAF5 (human) (UniProt O00463); test: co-immunoprecipitation, IP of Flag-tagged TRAF5, Western blot for HA-tagged TTRAP
[10] = target: TNF-RII expressed in 293T cells (UniProt P20333); test: co-immunoprecipitation from transfected 293T cells, IP of TNF-RII with utr4, Western blot
[11] = target: TNF-RII expressed in 293T cells (UniProt P20333); test: co-immunoprecipitation from 293T cells with 50 mM NaF, 1 mM Na3P2O7, 1 mM Na3VO4
[12] = target: Flag-tagged human TRAF5 (human) (UniProt O00463); test: co-immunoprecipitation from mammalian cells

B1: 4F2, TTRAP deletion mutant, amino acids 54 to 362 (protein)
chain: MERALNSYFEPPVEESALERRPETISEPKTYVDLTNEETTDSTTSKISPSEDTQQENGSMFSLITWNIDGLDLNNLSERARGVCSYLALYSPDVIFLQEVIPPYYSYLKKRSSNYEIITGHEEGYFTAIMLKKSRVKLKSQEIIPFPSTKMMRNLLCVHVNVSGNELCLMTSHLESTRGHAAERMNQLKMVLKKMQEAPESATVIFAGDTNLRDREVTRCGGLPNNIVDVWEFLGKPKHCQYTWDTQMNSNLGITAACKLRFDRIFFRAAAEEGHIIPRSLDLLGLEKLDCGRFPSDHWGLLCNLDIIL
binding (TRAF2 [1]): binds | binding (RIP [2]): binds | binding (TRAF2 [3]): binds | binding (RIP [4]): binds

B4: HA-tagged TTRAP (protein, not shown: small tags and cut ends)
chain: MELGSCLEGGREAAEEEGEPEVKKRRLLCVEFASVASCDAAVAQCFLAENDWEMERALNSYFEPPVEESALERRPETISEPKTYVDLTNEETTDSTTSKISPSEDTQQENGSMFSLITWNIDGLDLNNLSERARGVCSYLALYSPDVIFLQEVIPPYYSYLKKRSSNYEIITGHEEGYFTAIMLKKSRVKLKSQEIIPFPSTKMMRNLLCVHVNVSGNELCLMTSHLESTRGHAAERMNQLKMVLKKMQEAPESATVIFAGDTNLRDREVTRCGGLPNNIVDVWEFLGKPKHCQYTWDTQMNSNLGITAACKLRFDRIFFRAAAEEGHIIPRSLDLLGLEKLDCGRFPSDHWGLLCNLDIIL
binding [9]: binds | binding [10]: binds | binding [11]: binds | binding [12]: binds

Further lines, results first:

binding (TRAF2, Q12933 [5]): binds | binding (TRAF2, Q12933 [6]): binds | binding (TRAF2, Q12933 [7]): binds
B2: TTRAP (TRAF and TNF receptor associated protein), full-length human, O95551 1-362 (protein)
chain: B4 chain

binding [8]: binds | binding (TRADD): binds | binding (RIP [2]): binds | binding (RIP [4]): binds
B3: TTRAP (TRAF and TNF receptor associated protein), full-length human (protein)
chain: B4 chain
